No constants are given. Whether binding was seen depends on the method and setting. Binding seen in cells or lysates may run through a third protein. Some entries that bind do so weakly or less than the wild type.
Target: Actin-like protein 6A (Actl6a) (mouse (endogenous in primary neurons)) (UniProt Q9Z2N8)
Experiment: co-IP; cell lysates incubated overnight at 4 °C with antibodies to Actl6a (ab3882) and Sox2 (ab171380); immune complexes captured on Protein A/G beads and analysed by Western blot; primary neurons (Fig. 6C)

By UniProt entry, the sequences of proteins in these tests, tags left out.
UniProt Q9Z2N8: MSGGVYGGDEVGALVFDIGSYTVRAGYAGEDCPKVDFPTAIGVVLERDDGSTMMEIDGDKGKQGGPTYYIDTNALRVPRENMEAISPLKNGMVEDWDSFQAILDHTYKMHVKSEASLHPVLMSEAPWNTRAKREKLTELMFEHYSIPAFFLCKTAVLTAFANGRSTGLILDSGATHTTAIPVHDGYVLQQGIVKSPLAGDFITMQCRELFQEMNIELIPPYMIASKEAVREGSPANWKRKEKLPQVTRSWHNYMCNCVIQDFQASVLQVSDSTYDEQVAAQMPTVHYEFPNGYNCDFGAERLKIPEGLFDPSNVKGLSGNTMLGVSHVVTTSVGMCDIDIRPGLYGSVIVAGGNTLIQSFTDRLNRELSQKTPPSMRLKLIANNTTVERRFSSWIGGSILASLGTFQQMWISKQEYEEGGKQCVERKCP
UniProt P48432: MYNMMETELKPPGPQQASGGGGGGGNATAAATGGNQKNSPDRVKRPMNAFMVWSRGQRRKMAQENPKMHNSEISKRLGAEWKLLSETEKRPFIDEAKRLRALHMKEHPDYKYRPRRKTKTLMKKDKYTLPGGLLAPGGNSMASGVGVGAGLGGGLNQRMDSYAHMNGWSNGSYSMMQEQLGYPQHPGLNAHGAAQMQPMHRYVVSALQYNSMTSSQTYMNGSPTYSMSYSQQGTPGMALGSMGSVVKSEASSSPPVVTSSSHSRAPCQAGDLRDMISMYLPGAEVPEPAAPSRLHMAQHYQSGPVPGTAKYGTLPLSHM

binding: binds
Substance: Sox2 (from UniProt P48432 1-319)
